Assay results as given in US20140148782A1, “TISSUE INFUSION SYSTEM AND METHOD” (TWIN STAR MEDICAL, INC., priority 2010, published 2014).

System: ex vivo canine prostates
Experiment: dye infusion into ex vivo canine prostate with hollow fiber catheters
Parameters: species or system dog
[1] = 1.4-cm hollow fiber catheter, 0.01% dye in saline, 3.6 milliliters per catheter

Cc1cc(-c2ccc(/N=N/c3ccc4c(S(=O)(=O)[O-])cc(S(=O)(=O)[O-])c(N)c4c3O)c(C)c2)ccc1/N=N/c1ccc2c(S(=O)(=O)[O-])cc(S(=O)(=O)[O-])c(N)c2c1O.[Na+].[Na+].[Na+].[Na+] [Evan's blue dye]
infusion pressure at 10 minutes, left lobe [1]: 401 mm Hg | infusion pressure at 10 minutes, right lobe [1]: 480 mm Hg | dye distribution in prostate (5 mm slices after infusion): distributed in each lobe with very little dye traveling into the urethra | backflow (either hollow fiber catheter): No backflow was observed
